The assay addresses T1, hexokinase 2 (Flag-HK2) (UniProt P52789).
T1 sequence: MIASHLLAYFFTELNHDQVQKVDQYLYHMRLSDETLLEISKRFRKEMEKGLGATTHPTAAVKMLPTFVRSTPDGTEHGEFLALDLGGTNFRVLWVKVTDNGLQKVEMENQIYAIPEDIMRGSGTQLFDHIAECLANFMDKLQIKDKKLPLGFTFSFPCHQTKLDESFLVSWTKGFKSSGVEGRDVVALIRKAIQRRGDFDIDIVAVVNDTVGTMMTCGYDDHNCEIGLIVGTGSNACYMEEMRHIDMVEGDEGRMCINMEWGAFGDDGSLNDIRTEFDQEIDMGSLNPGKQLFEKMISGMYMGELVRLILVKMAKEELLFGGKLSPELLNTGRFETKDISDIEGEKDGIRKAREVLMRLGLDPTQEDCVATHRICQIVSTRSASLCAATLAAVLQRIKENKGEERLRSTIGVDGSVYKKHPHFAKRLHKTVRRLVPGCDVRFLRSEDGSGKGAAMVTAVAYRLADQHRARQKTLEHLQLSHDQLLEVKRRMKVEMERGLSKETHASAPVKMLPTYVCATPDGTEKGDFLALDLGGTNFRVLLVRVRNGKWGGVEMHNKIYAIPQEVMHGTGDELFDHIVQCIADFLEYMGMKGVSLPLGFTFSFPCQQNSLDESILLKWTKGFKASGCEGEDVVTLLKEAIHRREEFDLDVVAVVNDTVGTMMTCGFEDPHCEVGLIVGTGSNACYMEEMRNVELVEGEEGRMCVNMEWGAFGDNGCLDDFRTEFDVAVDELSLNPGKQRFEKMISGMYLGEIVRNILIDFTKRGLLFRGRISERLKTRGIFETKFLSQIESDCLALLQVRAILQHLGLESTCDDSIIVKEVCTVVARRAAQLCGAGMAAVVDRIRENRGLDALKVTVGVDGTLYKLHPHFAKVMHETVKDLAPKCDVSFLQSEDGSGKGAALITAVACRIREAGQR
The assay is described as follows: co-IP; Flag-HK2 overexpressed in KYSE-150 and Eca-109 cells; 500 ug whole cell lysate with 5 ug anti-Flag antibody overnight at 4 °C, IgG as control, Protein A + G agarose, Western blot; also done in PDIA3P1-KD cells (more MARCH8 precipitated) and PDIA3P1-OE cells (less MARCH8 precipitated).

Protein sequences, listed by entry. Tags and fused reporters are not part of them.
UniProt Q86TM6: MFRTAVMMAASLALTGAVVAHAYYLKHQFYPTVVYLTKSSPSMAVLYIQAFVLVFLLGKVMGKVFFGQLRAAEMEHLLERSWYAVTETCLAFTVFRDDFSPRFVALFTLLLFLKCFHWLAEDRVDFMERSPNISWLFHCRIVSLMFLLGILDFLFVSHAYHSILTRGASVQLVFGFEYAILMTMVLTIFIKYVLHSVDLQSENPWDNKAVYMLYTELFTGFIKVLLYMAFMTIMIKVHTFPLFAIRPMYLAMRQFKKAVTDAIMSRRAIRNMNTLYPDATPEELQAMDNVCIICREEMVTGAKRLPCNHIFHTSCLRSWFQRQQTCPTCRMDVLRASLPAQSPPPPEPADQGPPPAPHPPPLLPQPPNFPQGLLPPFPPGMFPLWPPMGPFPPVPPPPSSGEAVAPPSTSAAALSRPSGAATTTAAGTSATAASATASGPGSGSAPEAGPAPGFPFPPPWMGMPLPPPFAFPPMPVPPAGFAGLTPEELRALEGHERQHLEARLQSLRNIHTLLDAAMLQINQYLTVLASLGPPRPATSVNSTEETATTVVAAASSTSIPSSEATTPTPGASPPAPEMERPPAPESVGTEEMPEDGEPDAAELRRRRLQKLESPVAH

These are yes or no findings as the source states them, for the method shown. Binding seen in cells or lysates may run through a third protein. Some results given as binding are weak or reduced against the parent protein; the word gives no strength. Sequences can lack the tags named with a protein.

For “SYVN1 (from UniProt Q86TM6 1-617) (enzyme)”, the binding entry is “no binding”.

B1: membrane-associated RING-CH 8 (MARCH8) (enzyme, UniProt Q5T0T0 1-291)
chain: MSMPLHQISAIPSQDAISARVYRSKTKEKEREEQNEKTLGHFMSHSSNISKAGSPPSASAPAPVSSFSRTSITPSSQDICRICHCEGDDESPLITPCHCTGSLHFVHQACLQQWIKSSDTRCCELCKYEFIMETKLKPLRKWEKLQMTSSERRKIMCSVTFHVIAITCVVWSLYVLIDRTAEEIKQGQATGILEWPFWTKLVVVAIGFTGGLLFMYVQCKVYVQLWKRLKAYNRVIYVQNCPETSKKNIFEKSPLTEPNFENKHGYGICHSDTNSSCCTEPEDTGAEIIHV
As for B1, the binding entry is given as “binds”.

These data come from PMC12412560.
